No constants are given. Whether binding was seen depends on the method and setting. In cells and extracts the contact can be indirect. Some binding calls cover weakened binding; strength is not graded here.
T1: Fas (CD95/APO-1/TNFRSF6) (human (endogenous in Beas2B)), P25445
T1 chain: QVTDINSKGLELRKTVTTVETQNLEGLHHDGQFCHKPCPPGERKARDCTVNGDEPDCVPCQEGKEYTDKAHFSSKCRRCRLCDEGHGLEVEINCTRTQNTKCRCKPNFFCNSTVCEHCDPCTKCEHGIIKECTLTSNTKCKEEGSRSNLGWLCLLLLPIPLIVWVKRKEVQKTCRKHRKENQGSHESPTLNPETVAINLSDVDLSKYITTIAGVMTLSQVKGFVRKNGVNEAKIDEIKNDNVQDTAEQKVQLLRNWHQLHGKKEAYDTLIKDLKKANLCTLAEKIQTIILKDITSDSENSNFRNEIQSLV

B1: Flotillin-2/reggie-1 (protein, UniProt Q14254 1-428)
chain: MGNCHTVGPNEALVVSGGCCGSDYKQYVFGGWAWAWWCISDTQRISLEIMTLQPRCEDVETAEGVALTVTGVAQVKIMTEKELLAVACEQFLGKNVQDIKNVVLQTLEGHLRSILGTLTVEQIYQDRDQFAKLVREVAAPDVGRMGIEILSFTIKDVYDKVDYLSSLGKTQTAVVQRDADIGVAEAERDAGIREAECKKEMLDVKFMADTKIADSKRAFELQKSAFSEEVNIKTAEAQLAYELQGAREQQKIRQEEIEIEVVQRKKQIAVEAQEILRTDKELIATVRRPAEAEAHRIQQIAEGEKVKQVLLAQAEAEKIRKIGEAEAAVIEAMGKAEAERMKLKAEAYQKYGDAAKMALVLEALPQIAAKIAAPLTKVDEIVVLSGDNSKVTSEVNRLLAELPASVHALTGVDLSKIPLIKKATGVQV
B2: caspase-8 (FLICE), Q14790 1-479 (enzyme)
chain: MDFSRNLYDIGEQLDSEDLASLKFLSLDYIPQRKQEPIKDALMLFQRLQEKRMLEESNLSFLKELLFRINRLDLLITYLNTRKEEMERELQTPGRAQISAYRVMLYQISEEVSRSELRSFKFLLQEEISKCKLDDDMNLLDIFIEMEKRVILGEGKLDILKRVCAQINKSLLKIINDYEEFSKERSSSLEGSPDEFSNGEELCGVMTISDSPREQDSESQTLDKVYQMKSKPRGYCLIINNHNFAKAREKVPKLHSIRDRNGTHLDAGALTTTFEELHFEIKPHDDCTVEQIYEILKIYQLMDHSNMDCFICCILSHGDKGIIYGTDGQEAPIYELTSQFTGLKCPSLAGKPKVFFIQACQGDNYQKGIPVETDSEEQPYLEMDLSSPQTRYIPDEADFLLGMATVNNCVSYRNPAEGTWYIQSLCQSLRERCPRGDDILTILTEVNYEVSNKDDKKNMGKQMPQPTFTLRKKLVFPSD
B3: Fas associated death domain, Q13158 1-208 (protein)
chain: MDPFLVLLHSVSSSLSSSELTELKFLCLGRVGKRKLERVQSGLDLFSMLLEQNDLEPGHTELLRELLASLRRHDLLRRVDDFEAGAAAGAAPGEEDLCAAFNVICDNVGKDWRRLARQLKVSDTKIDSIEDRYPRNLTERVRESLRIWKNTEKENATVAHLVGALRSCQMNLVADLVQEVQQARDLQNRSGAMSPMSWNSDASTSEAS

Experiments:
[1] = target: Fas (CD95/APO-1/TNFRSF6) (human (endogenous in Beas2B)) (UniProt P25445); test: co-IP; Beas2B lysate immunoprecipitated with anti-Fas antibody, protein A/G Sepharose, Western blot; cells exposed to hyperoxia (4h, 24h) or room air; also cells with Flot-2 siRNA or control siRNA, and cells over-expressing Flot-2 or with empty vector
[2] = target: T1, Fas (CD95/APO-1/TNFRSF6) (human …); test: as above; details: remark: other sources report otherwise

| Binder | binding [1] | binding [2] |
| --- | --- | --- |
| B1 | binds |  |
| B2 |  | binds |
| B3 |  | binds |

Reference: article PMC3799625
